# According to the supplement of paper PMC6411743:
# The chains behind the UniProt entries cited, without tags or fusion partners. Where a name states a change or a piece, a line headed by the entry shows the natural chain unless it says otherwise.
# UniProt Q9C0E2: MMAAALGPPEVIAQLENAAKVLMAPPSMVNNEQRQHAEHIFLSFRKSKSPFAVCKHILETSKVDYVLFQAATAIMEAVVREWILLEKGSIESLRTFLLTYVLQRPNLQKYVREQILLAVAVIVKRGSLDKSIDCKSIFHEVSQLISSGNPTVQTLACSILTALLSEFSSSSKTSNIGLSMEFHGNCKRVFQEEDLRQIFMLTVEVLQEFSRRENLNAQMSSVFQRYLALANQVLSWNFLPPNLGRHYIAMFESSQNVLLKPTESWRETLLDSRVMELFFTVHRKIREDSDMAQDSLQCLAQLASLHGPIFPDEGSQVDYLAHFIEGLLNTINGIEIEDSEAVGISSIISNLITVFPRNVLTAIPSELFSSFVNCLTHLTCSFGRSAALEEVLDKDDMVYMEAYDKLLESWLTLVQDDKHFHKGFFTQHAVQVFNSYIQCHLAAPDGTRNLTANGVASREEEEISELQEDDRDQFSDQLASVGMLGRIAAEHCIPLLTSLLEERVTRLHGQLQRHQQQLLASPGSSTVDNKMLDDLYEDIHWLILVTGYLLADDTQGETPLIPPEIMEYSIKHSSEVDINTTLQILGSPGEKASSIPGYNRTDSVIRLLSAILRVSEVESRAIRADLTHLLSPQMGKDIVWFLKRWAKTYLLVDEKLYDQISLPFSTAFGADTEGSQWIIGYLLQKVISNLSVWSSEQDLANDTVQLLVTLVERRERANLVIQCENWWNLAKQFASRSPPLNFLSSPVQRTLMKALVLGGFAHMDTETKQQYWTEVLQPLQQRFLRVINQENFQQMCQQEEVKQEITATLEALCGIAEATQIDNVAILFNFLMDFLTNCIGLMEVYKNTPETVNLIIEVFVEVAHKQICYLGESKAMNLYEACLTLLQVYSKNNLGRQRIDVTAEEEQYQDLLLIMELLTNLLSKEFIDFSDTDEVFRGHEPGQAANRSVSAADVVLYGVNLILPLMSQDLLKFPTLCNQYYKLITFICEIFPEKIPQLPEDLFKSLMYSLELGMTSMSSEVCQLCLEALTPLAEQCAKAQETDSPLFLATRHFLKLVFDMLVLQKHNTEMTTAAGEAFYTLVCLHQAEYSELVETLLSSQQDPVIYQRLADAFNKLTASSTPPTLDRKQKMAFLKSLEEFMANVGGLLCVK
# UniProt Q9GZZ1: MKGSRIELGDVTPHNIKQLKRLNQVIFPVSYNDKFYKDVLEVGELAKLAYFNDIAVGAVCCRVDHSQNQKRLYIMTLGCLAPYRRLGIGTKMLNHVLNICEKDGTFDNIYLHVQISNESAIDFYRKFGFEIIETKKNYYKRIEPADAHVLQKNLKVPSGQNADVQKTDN
# UniProt P61803: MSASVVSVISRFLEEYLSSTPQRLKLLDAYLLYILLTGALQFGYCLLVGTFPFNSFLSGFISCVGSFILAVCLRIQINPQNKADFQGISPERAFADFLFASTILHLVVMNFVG
# UniProt Q16881, whole entry: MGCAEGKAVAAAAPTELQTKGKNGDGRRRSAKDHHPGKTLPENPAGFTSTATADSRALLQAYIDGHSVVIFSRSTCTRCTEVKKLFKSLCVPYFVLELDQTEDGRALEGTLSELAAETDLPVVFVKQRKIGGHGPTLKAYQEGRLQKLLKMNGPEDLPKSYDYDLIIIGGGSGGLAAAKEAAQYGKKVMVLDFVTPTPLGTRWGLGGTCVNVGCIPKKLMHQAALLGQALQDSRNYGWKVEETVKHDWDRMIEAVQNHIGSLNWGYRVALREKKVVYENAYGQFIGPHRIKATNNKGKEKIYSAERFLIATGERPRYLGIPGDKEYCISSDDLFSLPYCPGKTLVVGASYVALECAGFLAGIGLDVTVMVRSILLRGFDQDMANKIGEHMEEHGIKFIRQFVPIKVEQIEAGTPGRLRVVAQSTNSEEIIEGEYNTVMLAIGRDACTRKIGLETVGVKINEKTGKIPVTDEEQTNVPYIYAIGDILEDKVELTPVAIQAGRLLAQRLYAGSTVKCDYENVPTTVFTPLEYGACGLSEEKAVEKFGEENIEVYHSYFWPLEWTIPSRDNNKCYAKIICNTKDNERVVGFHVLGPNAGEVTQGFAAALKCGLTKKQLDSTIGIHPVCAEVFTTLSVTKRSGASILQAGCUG
# UniProt O43572: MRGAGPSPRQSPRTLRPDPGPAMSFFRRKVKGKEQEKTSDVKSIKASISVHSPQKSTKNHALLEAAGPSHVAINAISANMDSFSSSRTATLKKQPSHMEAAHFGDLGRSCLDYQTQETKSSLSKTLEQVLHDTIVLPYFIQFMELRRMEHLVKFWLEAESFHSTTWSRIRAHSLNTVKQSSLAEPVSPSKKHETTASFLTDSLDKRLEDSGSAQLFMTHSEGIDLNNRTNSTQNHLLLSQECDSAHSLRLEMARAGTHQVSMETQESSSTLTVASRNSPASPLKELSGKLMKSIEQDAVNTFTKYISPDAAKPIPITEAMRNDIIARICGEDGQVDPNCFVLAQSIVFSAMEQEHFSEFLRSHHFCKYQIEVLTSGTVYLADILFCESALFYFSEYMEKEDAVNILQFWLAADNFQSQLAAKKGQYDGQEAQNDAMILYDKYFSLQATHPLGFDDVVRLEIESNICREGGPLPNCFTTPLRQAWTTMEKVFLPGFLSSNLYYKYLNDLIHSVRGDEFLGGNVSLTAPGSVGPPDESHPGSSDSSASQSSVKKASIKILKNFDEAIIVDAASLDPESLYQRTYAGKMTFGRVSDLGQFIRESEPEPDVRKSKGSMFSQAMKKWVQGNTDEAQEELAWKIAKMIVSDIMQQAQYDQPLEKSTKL
# UniProt P60660, whole entry: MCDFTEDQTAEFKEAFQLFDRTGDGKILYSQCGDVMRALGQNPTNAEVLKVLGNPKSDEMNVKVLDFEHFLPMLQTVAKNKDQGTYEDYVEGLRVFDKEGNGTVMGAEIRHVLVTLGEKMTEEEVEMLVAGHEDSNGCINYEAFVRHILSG
# UniProt Q69YH5: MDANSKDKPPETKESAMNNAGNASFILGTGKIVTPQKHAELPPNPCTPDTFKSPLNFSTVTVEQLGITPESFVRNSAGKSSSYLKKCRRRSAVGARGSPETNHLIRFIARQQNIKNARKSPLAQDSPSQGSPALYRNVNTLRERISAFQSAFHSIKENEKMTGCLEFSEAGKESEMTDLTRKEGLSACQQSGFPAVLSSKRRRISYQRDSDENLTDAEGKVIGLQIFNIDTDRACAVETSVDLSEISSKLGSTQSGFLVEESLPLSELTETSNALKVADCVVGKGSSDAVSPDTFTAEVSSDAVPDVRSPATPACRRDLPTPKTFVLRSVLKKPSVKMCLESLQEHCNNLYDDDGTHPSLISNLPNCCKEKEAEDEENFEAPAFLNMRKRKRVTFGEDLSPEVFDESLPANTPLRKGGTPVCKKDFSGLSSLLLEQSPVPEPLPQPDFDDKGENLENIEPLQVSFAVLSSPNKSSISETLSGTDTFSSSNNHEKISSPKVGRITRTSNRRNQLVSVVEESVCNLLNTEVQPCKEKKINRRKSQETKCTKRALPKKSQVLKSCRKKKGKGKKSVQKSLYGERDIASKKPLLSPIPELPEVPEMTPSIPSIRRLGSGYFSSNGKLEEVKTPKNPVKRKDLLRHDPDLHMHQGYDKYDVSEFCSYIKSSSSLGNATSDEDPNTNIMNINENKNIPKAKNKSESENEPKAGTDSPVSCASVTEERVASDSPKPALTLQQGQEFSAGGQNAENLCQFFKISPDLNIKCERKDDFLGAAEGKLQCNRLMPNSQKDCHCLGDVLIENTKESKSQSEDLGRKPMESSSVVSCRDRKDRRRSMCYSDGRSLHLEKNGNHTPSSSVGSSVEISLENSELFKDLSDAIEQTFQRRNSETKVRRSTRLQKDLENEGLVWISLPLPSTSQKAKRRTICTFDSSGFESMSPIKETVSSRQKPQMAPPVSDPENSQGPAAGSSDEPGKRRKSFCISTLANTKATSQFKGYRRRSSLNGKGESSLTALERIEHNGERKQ
# UniProt P51825: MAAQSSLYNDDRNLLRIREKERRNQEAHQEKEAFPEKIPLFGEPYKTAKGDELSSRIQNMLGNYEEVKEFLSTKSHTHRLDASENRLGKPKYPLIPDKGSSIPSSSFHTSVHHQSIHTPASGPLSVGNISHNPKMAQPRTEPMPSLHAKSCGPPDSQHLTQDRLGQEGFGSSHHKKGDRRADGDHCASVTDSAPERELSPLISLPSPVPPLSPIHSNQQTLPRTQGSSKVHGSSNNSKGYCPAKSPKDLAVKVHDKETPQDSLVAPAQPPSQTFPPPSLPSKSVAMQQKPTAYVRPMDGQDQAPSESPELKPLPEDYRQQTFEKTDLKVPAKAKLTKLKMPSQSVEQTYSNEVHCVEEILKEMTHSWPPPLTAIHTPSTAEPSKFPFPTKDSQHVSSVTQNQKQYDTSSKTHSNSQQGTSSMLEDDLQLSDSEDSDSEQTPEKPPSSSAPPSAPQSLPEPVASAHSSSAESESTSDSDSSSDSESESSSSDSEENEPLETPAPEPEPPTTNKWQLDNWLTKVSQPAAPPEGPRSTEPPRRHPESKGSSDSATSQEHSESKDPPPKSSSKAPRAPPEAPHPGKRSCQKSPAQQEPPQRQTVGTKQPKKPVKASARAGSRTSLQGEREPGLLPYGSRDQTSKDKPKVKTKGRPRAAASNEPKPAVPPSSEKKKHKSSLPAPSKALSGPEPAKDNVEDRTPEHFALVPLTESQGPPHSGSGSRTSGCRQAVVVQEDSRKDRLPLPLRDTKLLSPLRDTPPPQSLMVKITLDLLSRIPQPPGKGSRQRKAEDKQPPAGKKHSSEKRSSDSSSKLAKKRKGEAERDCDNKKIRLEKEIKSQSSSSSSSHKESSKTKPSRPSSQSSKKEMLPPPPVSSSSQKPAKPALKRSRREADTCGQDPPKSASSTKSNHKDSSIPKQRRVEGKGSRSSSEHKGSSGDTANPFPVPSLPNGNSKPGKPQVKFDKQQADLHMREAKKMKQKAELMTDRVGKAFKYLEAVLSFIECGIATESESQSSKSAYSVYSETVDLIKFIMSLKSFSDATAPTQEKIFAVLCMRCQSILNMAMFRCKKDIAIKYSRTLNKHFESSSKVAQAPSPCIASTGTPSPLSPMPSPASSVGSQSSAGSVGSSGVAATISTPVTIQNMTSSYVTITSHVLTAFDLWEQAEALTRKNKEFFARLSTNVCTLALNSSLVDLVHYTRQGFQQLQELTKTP
# UniProt Q92844: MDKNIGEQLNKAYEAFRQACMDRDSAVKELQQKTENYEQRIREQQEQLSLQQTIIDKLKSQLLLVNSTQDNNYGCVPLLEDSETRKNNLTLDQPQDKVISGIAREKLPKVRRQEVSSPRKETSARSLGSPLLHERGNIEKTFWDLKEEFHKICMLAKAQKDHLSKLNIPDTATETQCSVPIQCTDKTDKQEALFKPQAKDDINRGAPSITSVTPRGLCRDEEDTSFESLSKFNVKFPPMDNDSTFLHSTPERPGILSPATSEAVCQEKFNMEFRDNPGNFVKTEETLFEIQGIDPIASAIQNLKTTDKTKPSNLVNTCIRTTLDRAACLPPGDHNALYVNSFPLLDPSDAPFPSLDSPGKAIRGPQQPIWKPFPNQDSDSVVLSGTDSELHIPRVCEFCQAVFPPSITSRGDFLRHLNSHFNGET
# UniProt P43250, whole entry, looked up: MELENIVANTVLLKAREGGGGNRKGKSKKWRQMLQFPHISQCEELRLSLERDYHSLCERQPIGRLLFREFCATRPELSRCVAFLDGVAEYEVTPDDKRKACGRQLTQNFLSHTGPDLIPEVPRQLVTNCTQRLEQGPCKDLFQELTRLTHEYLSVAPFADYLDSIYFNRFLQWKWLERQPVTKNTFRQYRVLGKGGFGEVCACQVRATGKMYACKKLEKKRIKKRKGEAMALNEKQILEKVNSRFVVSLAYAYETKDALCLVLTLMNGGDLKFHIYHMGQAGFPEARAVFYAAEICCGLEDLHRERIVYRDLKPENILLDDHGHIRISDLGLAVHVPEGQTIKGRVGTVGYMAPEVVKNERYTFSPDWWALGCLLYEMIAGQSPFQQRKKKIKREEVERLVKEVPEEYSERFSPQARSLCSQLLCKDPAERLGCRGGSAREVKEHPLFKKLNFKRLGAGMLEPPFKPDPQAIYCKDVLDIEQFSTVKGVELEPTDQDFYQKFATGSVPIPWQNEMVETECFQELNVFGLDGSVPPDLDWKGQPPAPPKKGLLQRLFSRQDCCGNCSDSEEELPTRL
# UniProt Q7L5N1: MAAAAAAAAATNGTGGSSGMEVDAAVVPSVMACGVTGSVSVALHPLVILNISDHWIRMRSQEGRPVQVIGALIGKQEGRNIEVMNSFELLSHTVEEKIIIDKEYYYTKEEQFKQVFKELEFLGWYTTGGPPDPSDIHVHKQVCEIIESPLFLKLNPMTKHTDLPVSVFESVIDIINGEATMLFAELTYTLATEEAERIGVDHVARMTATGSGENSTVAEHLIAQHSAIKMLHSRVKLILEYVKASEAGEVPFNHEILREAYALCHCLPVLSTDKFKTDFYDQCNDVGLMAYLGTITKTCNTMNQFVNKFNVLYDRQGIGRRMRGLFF
# ± gives the standard deviation of the averaged measurements. The list shows a part of the results, in another mix than the full data.
# Compound: Nc1ncnc2c1ncn2[C@@H]1O[C@H](COP(=O)(O)OP(=O)(O)NP(=O)(O)O)[C@@H](O)[C@H]1O [adenylyl imidodiphosphate]
# Test: NP40-soluble protein abundance relative to vehicle (solubility fold change) (ratio); higher = more soluble protein in presence of AMP-PNP
# Procedure, shortened: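 Values are fold changes against the detergent-processed vehicle, based on vsn-normalised intensities. Jurkat crude lysate was treated at eight concentrations from 0.1 to 10 mM (10 min at room temperature, then 3 min at 37 °C), solubilised with 0.8% NP40 and benzonase, ultracentrifuged and analysed by TMT-labelled LC-MS/MS over three independent experiments.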
Target,NP40-soluble protein abundance (concentration: 1mM),NP40-soluble protein abundance (concentration: 2mM),NP40-soluble protein abundance (concentration: 4mM),NP40-soluble protein abundance (concentration: 6mM),NP40-soluble protein abundance (concentration: 8mM),NP40-soluble protein abundance (concentration: 10mM)
F2Z2X4 and related entries (UniProt Q9C0E2),0.952 ± 0.031,0.914 ± 0.033,0.962 ± 0.024,0.941 ± 0.05,0.936 ± 0.033,0.919 ± 0.056
E7EQ69 (UniProt Q9GZZ1),0.992 ± 0.036,1 ± 0.053,1.03 ± 0.0084,1.12 ± 0.09,1.1 ± 0.052,1.11 ± 0.063
F5GXX5 and related entries (UniProt P61803),0.905 ± 0.054,0.819 ± 0.048,0.914 ± 0.063,0.937 ± 0.085,0.998 ± 0.036,0.906 ± 0.074
F8W809 and related entries (UniProt Q16881),0.9866 ± 0.0092,0.912 ± 0.093,0.956 ± 0.017,0.977 ± 0.017,0.99 ± 0.015,0.949 ± 0.022
E7EVX2 and related entries (UniProt Q13439),1.02 ± 0.02,1.07 ± 0.06,1.03 ± 0.024,0.98 ± 0.027,0.968 ± 0.027,0.982 ± 0.017
F6S8M0 and related entries (UniProt P15586),0.935 ± 0.055,0.994 ± 0.064,0.927 ± 0.046,0.974 ± 0.026,0.924 ± 0.033,0.959 ± 0.032
E7EMD6 and related entries (UniProt O43572),1 ± 0.038,1.009 ± 0.0089,1.01 ± 0.033,0.979 ± 0.015,0.971 ± 0.025,0.962 ± 0.013
G3V1V0 and related entries (UniProt P60660),1.08 ± 0.065,1.25 ± 0.13,1.09 ± 0.064,1.06 ± 0.057,0.995 ± 0.044,1.07 ± 0.1
E9PEI0 and related entries (UniProt Q69YH5),1 ± 0.022,0.958 ± 0.02,1 ± 0.025,0.998 ± 0.025,0.975 ± 0.037,1.01 ± 0.038
F5GXF9 and related entries (UniProt P51825),1.034 ± 0.0066,1.06 ± 0.061,1.04 ± 0.038,1.06 ± 0.048,1.03 ± 0.057,1.08 ± 0.038
E9PLL6 and related entries (UniProt P46776),0.984 ± 0.086,0.964 ± 0.083,0.947 ± 0.073,0.948 ± 0.016,0.892 ± 0.039,1.04 ± 0.14
E7EQA9 and related entries (UniProt Q92844),1.001 ± 0.0025,1.07 ± 0.084,0.981 ± 0.024,0.988 ± 0.026,0.946 ± 0.014,0.955 ± 0.038
F8W9W2 and related entries (UniProt P43250),1.07 ± 0.023,1.05 ± 0.075,1.09 ± 0.052,1.1 ± 0.068,1.12 ± 0.026,1.12 ± 0.082
E7EM64 and related entries (UniProt Q7L5N1),0.998 ± 0.019,0.9 ± 0.11,0.981 ± 0.046,0.953 ± 0.011,0.987 ± 0.024,0.936 ± 0.051
E9PMH5 and related entries (UniProt Q13490),0.995 ± 0.014,0.973 ± 0.036,0.996 ± 0.025,0.978 ± 0.032,0.965 ± 0.028,0.947 ± 0.013

# Some of the entries above in a different format.
Target | NP40-soluble protein abundance (concentration: 1mM) | NP40-soluble protein abundance (concentration: 2mM) | NP40-soluble protein abundance (concentration: 4mM) | NP40-soluble protein abundance (concentration: 6mM) | NP40-soluble protein abundance (concentration: 8mM) | NP40-soluble protein abundance (concentration: 10mM)
E7EVX2 and related entries (UniProt Q13439) | 1.02 ± 0.02 | 1.07 ± 0.06 | 1.03 ± 0.024 | 0.98 ± 0.027 | 0.968 ± 0.027 | 0.982 ± 0.017
F6S8M0 and related entries (UniProt P15586) | 0.935 ± 0.055 | 0.994 ± 0.064 | 0.927 ± 0.046 | 0.974 ± 0.026 | 0.924 ± 0.033 | 0.959 ± 0.032
